Among the data in paper PMC3649978 are binding values, retold here.

No constants are given. Whether binding was seen depends on the method and setting. In cells and extracts the contact can be indirect. Tags and fused reporters may be left off the sequences shown.

In the assay the target is Halo-tagged p104-CT_(SKNN)-V5 (p104 residues 470-871, SKIP motif mutated to SKNN) (Theileria annulata). The assay is described as follows: pull-down; Halo-tagged p104 fragments (C-terminal V5) linked to Halolink resin; about 500 µg lysate of COS-7 cells (untransfected, or expressing EB1-GFP fragments) incubated overnight; 5 washes with 500 mM NaCl and 0.01% tween-20; elution by TEV protease; immunoblot with anti-EB1, anti-GFP and anti-V5; only the target purified.

B1: EB1_(1–133)-GFP (mouse EB1 residues 1-133) (domain or fragment, UniProt Q61166 1-133)
chain: MAVNVYSTSVTSDNLSRHDMLAWINESLQLNLTKIEQLCSGAAYCQFMDMLFPGSIALKKVKFQAKLEHEYIQNFKILQAGFKRMGVDKIIPVDKLVKGKFQDNFEFVQWFKKFFDANYDGKEYDPVAARQGQ
B1: the binding entry was “no binding”.

B2: EB1_(125–268)-GFP (mouse EB1 residues 125-268) (domain or fragment, UniProt Q61166 125-268)
chain: DPVAARQGQETAVAPSLVAPALSKPKKPLGSSTAAPQRPIATQRTTAAPKAGPGMVRKNPGVGNGDDEAAELMQQVKVLKLTVEDLEKERDFYFGKLRNIELICQENEGENDPVLQRIVDILYATDEGFVIPDEGGPQEEQEEY
For B2, the binding entry is “no binding”.
